Patent publication US10689367B2, “Triazole pyridyl compounds as agonists of the APJ receptor” (AMGEN INC., priority 2016, dated 2020)

By UniProt entry, the sequences of proteins in these tests, tags left out.
UniProt P35414, whole entry: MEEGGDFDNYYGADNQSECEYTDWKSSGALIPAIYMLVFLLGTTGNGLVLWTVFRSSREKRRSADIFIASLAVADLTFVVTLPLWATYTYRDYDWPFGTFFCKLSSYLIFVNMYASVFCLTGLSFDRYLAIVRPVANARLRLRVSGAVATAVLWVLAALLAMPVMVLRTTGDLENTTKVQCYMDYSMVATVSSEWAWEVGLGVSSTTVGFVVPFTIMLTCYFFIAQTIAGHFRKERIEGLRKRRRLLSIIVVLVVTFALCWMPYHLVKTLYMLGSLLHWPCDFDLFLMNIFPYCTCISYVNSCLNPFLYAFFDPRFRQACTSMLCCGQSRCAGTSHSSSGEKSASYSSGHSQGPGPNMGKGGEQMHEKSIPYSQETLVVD

Biological target: APJ receptor (Homo sapiens (Human), UniProt P35414)
Assay: [35S]GTPγS binding assay on membranes from CHO cells stably expressing human APJ receptor
Assay type: biochemical
Conditions: read-out: Activity hAPJ SPA EC50 IP, membranes of CHO cells stably expressing human APJ receptor
Method: The human APJ receptor was cloned by polymerase chain reaction and the gene encoding the receptor was subcloned in pFLAG-CMV™-3 expression vector (Sigma, Saint Louis, Mo. USA) in-house at Amgen. A GTPγS binding assay was performed on membranes prepared from CHO cells stably expressing human APJ receptor. The optimum experimental conditions for the concentrations of GDP, MgCl2, and NaCl in the assay buffer were initially determined. […] Incubation was at RT for 90 min and the microplate was read using a ViewLux™ ultra HTS Microplate Imager (PerkinElmer, Inc.). All the results presented are means of several independent experiments and analyzed by non-linear regression methods using the commercially available program Prism (GraphPad, San Diego, Calif.) providing the EC50 values detailed in Table 27.

COc1cccc(-c2nnc(NS(=O)(=O)[C@@H](C)[C@H](OC)c3ncc(Cl)cn3)n2C(C)C2CCCCO2)n1 (single isomer, unassigned)
EC50: 0.24 nM

The structures given here were assigned with low confidence; some may be wrong.
